Measurements from publication doi:10.1101/2025.05.02.651988.
These are yes or no findings as the source states them, for the method shown. Binding can be weak; no strength is given.

Columns and labels:
Assay in all cases: cryo-EM structure
[1] = target: E. coli RNA polymerase α subunit (E. coli) (UniProt P0A7Z4)
[2] = target: E. coli RNA polymerase β subunit (E. coli) (UniProt P0A8V2)
[3] = target: E. coli RNA polymerase σ70 subunit (E. coli) (UniProt P00579)

Measured: binding

phage Mu late gene transcription activator C (from UniProt P06022)
binds: all assays above
